PMC10107491, “Phosphorylation of S11 in PHR1 negatively controls its transcriptional activity”
No constants are given. Whether binding was seen depends on the method and setting. For some of these results: In cells and extracts the contact can be indirect. Some results given as binding are weak or reduced against the parent protein; the word gives no strength. For some of these results: Sequences can lack the tags named with a protein.

Amino acid sequences for entries named in this document (tags omitted).
UniProt Q94CL7: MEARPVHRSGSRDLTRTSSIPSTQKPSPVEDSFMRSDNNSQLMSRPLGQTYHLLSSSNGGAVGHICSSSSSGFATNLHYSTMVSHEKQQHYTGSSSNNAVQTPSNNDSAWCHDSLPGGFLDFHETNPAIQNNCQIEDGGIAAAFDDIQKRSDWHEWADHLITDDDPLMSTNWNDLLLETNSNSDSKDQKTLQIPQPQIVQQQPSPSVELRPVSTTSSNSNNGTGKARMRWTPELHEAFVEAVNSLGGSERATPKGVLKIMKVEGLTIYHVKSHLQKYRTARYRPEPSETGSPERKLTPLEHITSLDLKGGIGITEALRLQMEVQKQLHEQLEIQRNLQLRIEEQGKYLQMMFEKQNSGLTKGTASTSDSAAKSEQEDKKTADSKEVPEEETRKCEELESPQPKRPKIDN

T1: GST-SnRK1α2 catalytic (kinase) domain (Arabidopsis thaliana) (UniProt P92958)
T1 sequence: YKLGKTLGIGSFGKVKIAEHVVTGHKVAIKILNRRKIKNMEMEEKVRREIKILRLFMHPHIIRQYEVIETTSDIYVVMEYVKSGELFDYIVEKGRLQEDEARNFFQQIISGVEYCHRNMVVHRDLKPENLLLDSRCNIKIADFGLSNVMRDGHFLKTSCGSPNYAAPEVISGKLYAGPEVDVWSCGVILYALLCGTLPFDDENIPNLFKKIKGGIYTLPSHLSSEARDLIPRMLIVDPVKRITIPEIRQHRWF

T2: SnRK1α1-YFP^N (Arabidopsis thaliana) (UniProt Q38997)
T2 sequence: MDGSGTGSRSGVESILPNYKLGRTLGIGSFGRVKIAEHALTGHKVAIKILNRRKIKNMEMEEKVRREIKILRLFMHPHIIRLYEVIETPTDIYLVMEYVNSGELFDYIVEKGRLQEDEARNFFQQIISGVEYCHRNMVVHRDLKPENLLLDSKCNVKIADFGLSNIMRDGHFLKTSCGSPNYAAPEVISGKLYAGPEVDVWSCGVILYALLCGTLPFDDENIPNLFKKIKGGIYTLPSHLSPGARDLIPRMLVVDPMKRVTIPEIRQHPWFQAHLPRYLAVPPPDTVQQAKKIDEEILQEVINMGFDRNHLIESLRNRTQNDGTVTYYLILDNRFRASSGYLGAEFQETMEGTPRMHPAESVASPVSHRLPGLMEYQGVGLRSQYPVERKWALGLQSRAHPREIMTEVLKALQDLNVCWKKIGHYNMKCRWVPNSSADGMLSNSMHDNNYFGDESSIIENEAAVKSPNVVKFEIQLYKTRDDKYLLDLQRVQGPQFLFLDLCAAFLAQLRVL

T3: SnRK1α2-YFP^N (Arabidopsis thaliana) (UniProt P92958)
T3 sequence: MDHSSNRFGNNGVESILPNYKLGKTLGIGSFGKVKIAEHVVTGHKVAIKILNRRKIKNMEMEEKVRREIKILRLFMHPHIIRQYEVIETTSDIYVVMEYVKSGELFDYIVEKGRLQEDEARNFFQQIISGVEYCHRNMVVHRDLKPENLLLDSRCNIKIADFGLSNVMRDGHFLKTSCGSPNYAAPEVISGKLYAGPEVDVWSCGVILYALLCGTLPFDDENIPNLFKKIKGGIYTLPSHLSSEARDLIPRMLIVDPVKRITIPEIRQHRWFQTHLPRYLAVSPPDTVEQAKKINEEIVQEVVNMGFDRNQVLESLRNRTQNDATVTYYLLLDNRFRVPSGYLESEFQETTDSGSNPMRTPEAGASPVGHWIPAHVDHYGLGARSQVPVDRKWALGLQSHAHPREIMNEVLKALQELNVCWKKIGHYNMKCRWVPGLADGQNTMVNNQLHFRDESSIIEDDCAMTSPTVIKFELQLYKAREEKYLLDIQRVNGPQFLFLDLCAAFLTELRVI

T4: SnRK1α1 catalytic subunit (endogenous, Arabidopsis rosettes) (Arabidopsis thaliana (endogenous in rosettes)) (UniProt Q38997)
T4 sequence: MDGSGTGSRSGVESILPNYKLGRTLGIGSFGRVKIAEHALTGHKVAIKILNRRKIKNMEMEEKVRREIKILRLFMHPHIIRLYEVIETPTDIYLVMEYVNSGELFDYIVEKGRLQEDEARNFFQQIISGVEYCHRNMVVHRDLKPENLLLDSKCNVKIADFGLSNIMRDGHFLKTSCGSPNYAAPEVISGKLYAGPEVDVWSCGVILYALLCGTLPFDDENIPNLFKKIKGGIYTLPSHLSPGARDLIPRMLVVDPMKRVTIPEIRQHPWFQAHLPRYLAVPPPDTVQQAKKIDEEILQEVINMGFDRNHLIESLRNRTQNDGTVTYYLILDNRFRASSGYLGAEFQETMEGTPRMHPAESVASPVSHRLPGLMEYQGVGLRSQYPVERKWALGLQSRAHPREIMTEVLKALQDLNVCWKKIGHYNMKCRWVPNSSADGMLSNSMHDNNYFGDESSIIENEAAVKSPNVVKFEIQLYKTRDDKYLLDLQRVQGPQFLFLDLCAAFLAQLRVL


What was measured:
[1] = target: GST-SnRK1α1 catalytic (kinase) domain (Arabidopsis thaliana) (UniProt Q38997); assay: pull-down; recombinant GST-SnRK1α1/α2 incubated with PHR1-HIS in 20 mM Tris-HCl pH 7.5, 50 mM KCl, 5 mM EDTA, 5 mM MgCl2, 1 mM DTT, 2.5% glycerol, 0.05% NP-40, 2 h at 25°C; captured on GSH-agarose, eluted with 20 mM GSH; PHR1 detected with anti-HIS; both purified
[2] = target: T1, GST-SnRK1α2 catalytic (kinase) domain (Arabidopsis thaliana); assay: as above
[3] = target: T2, SnRK1α1-YFP^N (Arabidopsis thaliana); assay: split reporter; BiFC (split YFP) in roots of Arabidopsis seedlings, transient expression by cocultivation with Agrobacterium tumefaciens, 72 h
[4] = target: T3, SnRK1α2-YFP^N (Arabidopsis thaliana); assay: as above
[5] = target: T4, SnRK1α1 catalytic subunit (endogenous, Arabidopsis rosettes) (Arabidopsis thaliana (endogenous in rosettes)); assay: SEC; S-300 gel filtration of the 50% ammonium sulfate fraction of rosette extract of plants grown under Pi-deficient (−Pi) conditions; fractions of the SnRK1 activity peak (250-150 kDa) blotted with antibodies against the SnRK1 subunits
[6] = target: T4, SnRK1α1 catalytic subunit (endogenous, Arabidopsis rosettes) (Arabidopsis thaliana (endogenous in rosettes)); assay: condition: only plants grown under Pi-sufficient (+Pi) conditions; SEC; S-300 gel filtration of the 50% ammonium sulfate fraction of rosette extract of plants grown under Pi-sufficient (+Pi) conditions; fractions of the SnRK1 activity peak blotted with antibodies against the SnRK1 subunits

| Molecule | binding [5] | binding [6] | also measured |
| --- | --- | --- | --- |
| PHR1-HIS (full-length Phosphate starvation response 1, recombinant) (from UniProt Q94CL7 1-409) |  |  | binding [1]: binds; binding [2]: binds |
| PHR1-YFP^C (from UniProt Q94CL7 1-409) |  |  | binding [3]: binds; binding [4]: binds |
| SnRK1β1 regulatory subunit (endogenous, Arabidopsis rosettes) (protein, UniProt Q84VQ1 1-283) MGNANGKDEDAAAGSGGADVTSSSARSNGGDPSARSRHRRPSSDSMSSSPPGSPARSPSPFLFAPQVPVAPLQRANAPPPNNIQWNQSQRVFDNPPEQGIPTIITWNQGGNDVAVEGSWDNWRSRKKLQKSGKDHSILFVLPSGIYHYKVIVDGESKYIPDLPFVADEVGNVCNILDVHNFVPENPESIVEFEAPPSPDHSYGQTLPAAEDYAKEPLAVPPQLHLTLLGTTEETAIATKPQHVVLNHVFIEQGWTPQSIVALGLTHRFESKYITVVLYKPLTR | binds |  |  |

More lines, main results first:

| binding [5] | binding [6] | Molecule | also measured |
| --- | --- | --- | --- |
| binds | no binding | SnRK1β3 regulatory subunit (endogenous, Arabidopsis rosettes) (protein, UniProt Q9ZUU8 1-114) MNSQNPDDHEDTTVVGFEVPVSPVSSYNNVYSSTEDETRDPPAVPPHLQHSLLGNQGSMELAYAPQNVVLNHLYIENRDAPRSVVALGFSHRFRTKFVTVVIYKPVQRRGSANV |  |
| binds | no binding | SnRK1β2 regulatory subunit (endogenous, Arabidopsis rosettes) (protein, UniProt Q9SCY5 1-289) MGNVNAREEANSNNASAVEDEDAEICSREAMSAASDGNHVAPPELMGQSPPHSPRATQSPLMFAPQVPVLPLQRPDEIHIPNPSWMQSPSSLYEEASNEQGIPTMITWCHGGKEIAVEGSWDNWKTRSRLQRSGKDFTIMKVLPSGVYEYRFIVDGQWRHAPELPLARDDAGNTFNILDLQDYVPEDIQSISGFEPPQSPENSYSNLLLGAEDYSKEPPVVPPHLQMTLLNLPAANPDIPSPLPRPQHVILNHLYMQKGKSGPSVVALGSTHRFLAKYVTVVLYKSLQR |  |
| binds |  | SnRK1βγ regulatory subunit (endogenous, Arabidopsis rosettes) (protein, UniProt Q944A6 1-487) MFGSTLDSSRGNSAASGQLLTPTRFVWPYGGRRVFLSGSFTRWTEHVPMSPLEGCPTVFQVICNLTPGYHQYKFFVDGEWRHDEHQPFVSGNGGVVNTIFITGPDMVPAGFSPETLGRSNMDVDDVFLRTADPSQEAVPRMSGVDLELSRHRISVLLSTRTAYELLPESGKVIALDVNLPVKQAFHILYEQGIPLAPLWDFGKGQFVGVLGPLDFILILRELGTHGSNLTEEELETHTIAAWKEGKAHISRQYDGSGRPYPRPLVQVGPYDNLKDVALKILQNKVAAVPVIYSSLQDGSYPQLLHLASLSGILKCICRYFRHSSSSLPILQQPICSIPLGTWVPRIGESSSKPLATLRPHASLGSALALLVQAEVSSIPVVDDNDSLIDIYSRSDITALAKDKAYAQIHLDDMTVHQALQLGQDASPPYGIFNGQRCHMCLRSDSLVKVMERLANPGVRRLVIVEAGSKRVEGIISLSDVFQFLLGL |  |
